Reference: PubChem BioAssay AID1347426 (Functional Genomics Laboratory (NCATS/FGL), 2020)
Hit rate of the full screen: of about 31,000 sequences, about 1,400 (4.5%) were called active.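 How the source made its calls: active means median seed-adjusted z-score above 1 or below -1; inactive means the rest.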 The list shows a part of the results.

Assay: Novel Modifiers of Survival Motor Neuron (SMN) Protein: Gene Identification via Genome-wide siRNA Screen;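 further: luminescence tracks full-length SMN protein made from the SMN2 reporter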
Details: HEK293T SMN2-luciferase reporter, siRNA knockdown, 72 h; actives lie on both sides
Procedure, shortened: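 Genome-wide siRNA screen (10418 genes, 3 siRNAs each, 1 pmol per well) by reverse transfection in HEK293T cells stably carrying an SMN2-luciferase reporter; luminescence after 72 hours, normalized to negative-control siRNA, log10-transformed, MAD-scored.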

Sequence	median seed-adjusted z-score
GGAUCUGUAUCAAGCCGUUTT against APC	inactive: 0.154
AGGAGUUCUUGGUCAUGAUTT against TNNC2	inactive: -0.773
AGACCAUCGAGACACGGGATT against DES	inactive: 0
AAGCCUCCAUUGAAAGAAUTT against GNG12	inactive: 0.331
GGAAAAAGUCUAUAAUCUUTT against POLR3E	inactive: -0.55
GGUAUUUCCAGGCCCACAATT against SHROOM1	inactive: 0.0461
UCAUUAGUGUCGACCCUAATT against SMARCD2	inactive: 0.162
AGAACAAAGACCUAAUGGATT against TNNT3	inactive: -0.293
AGAUGAUUCUAGAAUCCAATT against STK32B	inactive: 0.683
GCUAGAUCACUGUAACAUATT against GSK3B	inactive: -0.952
GGGUGUAAAAUGCACGUUUTT against CLDN16	inactive: -0.868
CCAGCUCCUUUAUCAAGCATT against RAD51	inactive: 0.594
AGCUGAUUUCGGAACACUATT against GFOD2	inactive: -0.0447
CCACUUUGAAGGACACUAUTT against DUSP4	inactive: -0.176
CGAAGGGUUUGAAUACCGATT against HIRA	inactive: 0.286
GUAUGAUGAUAGUCGAAUATT against MAP3K2	inactive: 0
GAUCCACCCAAAUAUCAAATT against KLF1	inactive: 0
GGCAAUGUAUCCACACAUATT against APOBEC3F	inactive: -0.315
ACUCAGACCUUUAUCCUGATT against CA12	inactive: -0.0119
CAUACGGACUGUACCUUUATT against PSMC5	active: -1.06
GCAUCCAAAUGCUGAUGGGTT against CSHL1	inactive: -0.54
GAUGAUGGAUUUAACUAUATT against CALU	inactive: 0.123
GGAAGGACUGCGAACCUUATT against POLM	active: -1.55
CCAUGGAGAUCGUAGUGGATT against CLCN5	inactive: 0.856
CCAUGACACGGUCCUCCAATT against ICAM2	inactive: 0.269
GGAAUAUCCUUCCACUUCATT against ADPGK	inactive: 0.373
GGCGUAACUUCAGUAAACATT against PBX3	inactive: 0.847
GGAAGAAGUUGUCCGAUGATT against CYP4F3	inactive: -0.336
UGGACACCGUCACCAUGAATT against GPR78	inactive: 0.607
GACGGAGAGGAAUAAUUGATT against HEY1	inactive: -0.023

Reprinted at random: 2 entries already listed, in no set order.
Sequence	median seed-adjusted z-score
CCACUUUGAAGGACACUAUTT against DUSP4	inactive: -0.176
AGGAGUUCUUGGUCAUGAUTT against TNNC2	inactive: -0.773
